# Results published in ChEMBL document CHEMBL5308504, “Tm Shift (DSF) assay results for EUbOPEN Chemogenomics Library” (2023).
# For some assays here: Most of the highest values are listed elsewhere, so they are rarer here than in the full data. For some assays here: What follows is the remainder of the data, with few or none of the lowest values.
# Assays:
# [1] = molecular target: Bromodomain-containing protein 4 (Homo sapiens) (UniProt O60885); settings: Compound concentration 20.0 uM, Protein concentration 2.0 uM, Result type QC Liability
# [2] = molecular target: T1, Transcription intermediary factor 1-alpha (Homo sapiens) (UniProt O15164); settings: Compound concentration 20.0 uM, Protein concentration 2.0 uM, Result type QC Liability
# T1 sequence (whole entry): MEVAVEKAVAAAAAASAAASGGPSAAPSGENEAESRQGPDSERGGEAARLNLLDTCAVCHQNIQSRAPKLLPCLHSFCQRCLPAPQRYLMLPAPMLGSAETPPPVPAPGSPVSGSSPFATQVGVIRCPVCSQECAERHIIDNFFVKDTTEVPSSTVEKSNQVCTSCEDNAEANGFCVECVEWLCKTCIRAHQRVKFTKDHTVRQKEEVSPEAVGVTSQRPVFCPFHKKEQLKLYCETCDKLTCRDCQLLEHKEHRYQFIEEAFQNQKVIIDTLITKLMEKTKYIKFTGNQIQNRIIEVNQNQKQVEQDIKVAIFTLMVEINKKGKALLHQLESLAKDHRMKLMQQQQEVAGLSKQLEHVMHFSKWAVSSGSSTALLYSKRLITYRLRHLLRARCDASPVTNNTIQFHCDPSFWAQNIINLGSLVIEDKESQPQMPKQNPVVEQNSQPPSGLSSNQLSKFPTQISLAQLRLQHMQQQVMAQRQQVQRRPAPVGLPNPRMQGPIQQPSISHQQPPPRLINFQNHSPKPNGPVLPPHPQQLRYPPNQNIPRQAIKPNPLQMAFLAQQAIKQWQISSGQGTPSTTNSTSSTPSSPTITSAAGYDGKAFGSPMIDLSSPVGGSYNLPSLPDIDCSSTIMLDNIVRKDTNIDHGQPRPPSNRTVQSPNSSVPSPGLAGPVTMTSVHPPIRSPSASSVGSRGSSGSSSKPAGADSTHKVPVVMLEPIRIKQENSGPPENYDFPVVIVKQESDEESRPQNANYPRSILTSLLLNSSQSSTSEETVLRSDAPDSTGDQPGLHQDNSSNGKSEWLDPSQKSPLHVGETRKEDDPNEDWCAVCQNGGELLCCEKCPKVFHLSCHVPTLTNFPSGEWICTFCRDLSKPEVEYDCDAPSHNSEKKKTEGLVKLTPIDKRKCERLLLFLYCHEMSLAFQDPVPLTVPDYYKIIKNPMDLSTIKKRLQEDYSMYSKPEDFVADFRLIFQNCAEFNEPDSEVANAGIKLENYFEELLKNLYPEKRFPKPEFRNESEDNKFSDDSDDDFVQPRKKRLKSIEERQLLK
structure (smiles),measurement,setting,value
C[C@@H]1C[C@H](N)C[C@H](c2ccncc2NC(=O)c2ccc(F)c(-c3c(F)cccc3F)n2)C1,ΔTm,[1],-0.58 °C
same,ΔTm,[2],-0.71 °C
